Drawing on PubChem BioAssay AID1347423 (Functional Genomics Laboratory (NCATS/FGL), 2020), this text covers z-score for 66 sequences.

The campaign covered roughly 52,000 sequences. About 210 (0.4%) were called active.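 The calls were made as follows: active = gene whose silencing raises cell survival under the drug, median off-target-corrected z-score across its silencing RNAs 2 or more; inactive = the rest.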 The list shows a part of the results.

The experiment is described as follows: Resistance to Poly (ADP-Ribose) Polymerase inhibitor: Gene Identification via Genome-wide siRNA Screen. The conditions noted are these: mouse BRCA2 R2336H ES cells, olaparib, CellTiter-Glo viability; active compounds read high. The procedure, abridged: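 Genome-wide siRNA screen (3 siRNAs/gene, 20 nM) in mouse ES cells carrying hypomorphic BRCA2 R2336H; olaparib 500 nM added 48 h post-transfection, CellTiter-Glo viability 72 h later. Normalized to plate-median negative control; MAD z-scores, gene median, seed-adjusted.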
With GCUACGUUUUUUACCUCCATT against Bak1, the z-score is inactive: -0.165.

Consider GGUUAACAUCACUCUGUCUTT against Ntng1, for which the z-score is inactive: -2.37.

On to GCGAGUGGACCUGUUUUACTT against Btc, for which the z-score is inactive: -0.444.

Regarding GGCUGCUAACAAAGACAACTT against Ift172, the z-score was inactive: -0.0185. Then GGUUCUGUGUAUGGAUUAUTT against Fzd5, with inactive: 0.754; and GUCAGUGGGCUUCUCAGAUTT against Pxmp2, with inactive: 0.975; and GCCUAUGUAAAUAGUGCUGTT against Mt3, with inactive: -0.0187. In the case of GGAAGACAUAAUAAUAGAGTT against Rad17, the z-score was inactive: -0.164. As for CCACCUGUCUUGAAAAUUGTT against Edg5, the figure is inactive: 1.49. Take “GCGAACCAAACUUGCAUAUTT against D6Ertd365e”: the z-score is inactive: -1.33.

As to GGAAAGUGUGUUCAUUAGUTT against Pla2g2d, the z-score was inactive: -0.775. Then GCCGUUUUAUGUGGCAGAATT against Slc35d3, with inactive: -1.67; and “GGAAACAUGGCAUCAAGACTT against 1110059G10Rik”, with inactive: 1.63; and GCCGCUUAGUUCUGUUUUATT against Clcn5, with inactive: 1.06. Then “CCCUCUGGUUCUAGCUGUUTT against 2600003E23Rik”, with inactive: -0.49; and GGAAAGAAUUGGAUGACUATT against BC051070, with inactive: -0.225. As for “GCUCAUUUUAGGCAAAAGATT against A630065K24Rik”, the figure is inactive: 0.0647; as for GGCCAUGGAAGCUGUUGCUTT against Pgam2, inactive: 0.16. With CCACUGUCCCUAAGGUACUTT against Olfr161, the z-score was inactive: 1.98. As for GGAUUCAUGAUUAUCUUUCTT against Olfr790, the figure is inactive: 0.00848.

For GGAGGCACACCUGAAACAUTT against Cacna2d3, the z-score is inactive: 1.04.

As to GGCUUUCAAGAGCAAUCCCTT against Man2b2, the z-score is inactive: 0.33. Then “GGAUAACUCUUUCAAAGACTT against A930010E21Rik”, with inactive: 0.12; and GGCUCGAGUUCAACCUAAUTT against Arih2, with inactive: -0.000943.

In the case of “GGUCCAUUAUCGAUUUCAUTT against 5730403M16Rik”, the z-score is inactive: -0.497. For CGGGAAUACGCUACGAACATT against Hoxa13, the z-score is inactive: -1.12. Then “GCUGGAUGGCCGUUUCAAATT against 4931417G12Rik”, with inactive: 1.83; and GGAGCAGAUGCUAACUGUGTT against Zfp29, with inactive: 0.532; and GGAAUUAUGAACAAAUUGCTT against H2-M9, with inactive: 0.21. For the sequence GGCUUCCUGACUGUUCAGATT against V1rc8, the z-score is inactive: -0.799. As for GCAUGCGACUCUGUUCUCGTT against Gtf2a2, the figure is inactive: -0.0277; as for GGUCACAAUGGUUUAAGGATT against Tacr1, inactive: -0.553; as for GGUGCUGACUGAGAAGGAGTT against Fdps, inactive: -0.631. Then GGGCAAGAUGGUCAGUAGATT against Tpt1, with inactive: -1.57. In the case of GGCUUCUACUGAAGAAUCCTT against Gdf9, the z-score is inactive: -0.173. Take GCUGCACGGAAACAUGUUUTT against Sirt6: the z-score was inactive: 0.773. As for GGAGAAGGAGUUCCUUAUGTT against Ikbkg, the z-score was inactive: -0.341. As for GCUCAAGAGUCUAACUCCCTT against LOC574418, the figure is inactive: 0.00955; as for CGGAACACUUUAGAAUCUATT against LOC432582, inactive: 0.927; as for GGGACCUAAAGUCACAGUCTT against Ppib, inactive: 0.215.

GGACAUAAAGAAGGAACUUTT against Myt1: the z-score is inactive: -0.364. As for GGAGAAGAUGUCAUCCAGATT against Zfp467, the z-score was inactive: -0.356.

In the case of “GCAGUUAAGGACAAUCAUGTT against 6330505N24Rik”, the z-score is inactive: 2.67.

Take GCCAUUCUAACUCUGCCUCTT against Olfr639: the z-score is inactive: -0.692.

GCGUCCUGUUCUGUAUCAATT against Tas2r126: the z-score was inactive: 0.0467. As for GGCCUUGUAUAAAACACAUTT against Pah, the figure is inactive: 2.09. As for GGCAGAACUACUUUUAUAGTT against Cldn17, the z-score is inactive: 0.727.

As to “GGGAUGGUAACAGGAAGUGTT against A530016L24Rik”, the z-score is inactive: 0.00853. Regarding GAAGGAAGUUGGAAAGAACTT against Bcl2a1c, the z-score was inactive: -0.687.

As to GCGAGUUCGGAAGAAGUAUTT against Ddx41, the z-score was inactive: -0.638. As for GCUGGUUACUCCCAAGACGTT against Dlgap2, the figure is inactive: 0.659. As for GUCCACGAAACUAAAACUGTT against Csh1, the figure is inactive: 0.33; as for CCACGUCCUCUACUUGUAUTT against Nmbr, inactive: 0.2. Then GCAACUUACAAGCAGGCCGTT against Fcgr3, with inactive: 0.709; and GCCUAGUCCACUUUAUCCUTT against Def8, with inactive: 0.514. Take GGACAUUAGAGAAUCAUUATT against 4.93E+23: the z-score is inactive: 1.62. As for GGAAAUGGUUAACAUCAUUTT against Mtmr9, the figure is inactive: -0.0027. Regarding GGUUUAUCAGAAAGCCUCGTT against Dlgap1, the z-score was inactive: 0.892. For the sequence CGGCAGUCGUGAGACAUAUTT against Camk1d, the z-score was inactive: -2.97. “GGAACCUAUUUUUUCGUAUTT against 5830483C08Rik”: the z-score is inactive: -0.18. As for “GGUCCUUAUCGCUUGGAUGTT against 4932416F07Rik”, the figure is inactive: -0.374; as for GGCAAUUUUUACACAGAAATT against Pink1, inactive: -1.67; as for UUGGGAAAUCGAUUUUACCTT against LOC433762, inactive: 1.87.

In the case of “GCUUGGUGUUAAUUUGUUGTT against 4632412E09Rik”, the z-score is inactive: 0.261. As for GGAUUUCAAAUGGAAACAATT against V1ra2, the figure is inactive: -0.987; as for GCUAUUAUCAUUGUGCAAUTT against Tas2r125, inactive: 0.794.
